Results taken from article doi:10.1101/2025.11.12.688075.
Where two headings read alike, the source gives them in different places. These are yes or no findings as the source states them, for the method shown. Binding seen in cells or lysates may run through a third protein. Here binding means that the protein was enriched with, or labelled near, the bait; the list need not be complete. A no says only that the protein was not detected with the bait.

Amino acid sequences for entries named in this document (tags omitted). Residues count along the entry.
UniProt E9Q414, residues 28-4505: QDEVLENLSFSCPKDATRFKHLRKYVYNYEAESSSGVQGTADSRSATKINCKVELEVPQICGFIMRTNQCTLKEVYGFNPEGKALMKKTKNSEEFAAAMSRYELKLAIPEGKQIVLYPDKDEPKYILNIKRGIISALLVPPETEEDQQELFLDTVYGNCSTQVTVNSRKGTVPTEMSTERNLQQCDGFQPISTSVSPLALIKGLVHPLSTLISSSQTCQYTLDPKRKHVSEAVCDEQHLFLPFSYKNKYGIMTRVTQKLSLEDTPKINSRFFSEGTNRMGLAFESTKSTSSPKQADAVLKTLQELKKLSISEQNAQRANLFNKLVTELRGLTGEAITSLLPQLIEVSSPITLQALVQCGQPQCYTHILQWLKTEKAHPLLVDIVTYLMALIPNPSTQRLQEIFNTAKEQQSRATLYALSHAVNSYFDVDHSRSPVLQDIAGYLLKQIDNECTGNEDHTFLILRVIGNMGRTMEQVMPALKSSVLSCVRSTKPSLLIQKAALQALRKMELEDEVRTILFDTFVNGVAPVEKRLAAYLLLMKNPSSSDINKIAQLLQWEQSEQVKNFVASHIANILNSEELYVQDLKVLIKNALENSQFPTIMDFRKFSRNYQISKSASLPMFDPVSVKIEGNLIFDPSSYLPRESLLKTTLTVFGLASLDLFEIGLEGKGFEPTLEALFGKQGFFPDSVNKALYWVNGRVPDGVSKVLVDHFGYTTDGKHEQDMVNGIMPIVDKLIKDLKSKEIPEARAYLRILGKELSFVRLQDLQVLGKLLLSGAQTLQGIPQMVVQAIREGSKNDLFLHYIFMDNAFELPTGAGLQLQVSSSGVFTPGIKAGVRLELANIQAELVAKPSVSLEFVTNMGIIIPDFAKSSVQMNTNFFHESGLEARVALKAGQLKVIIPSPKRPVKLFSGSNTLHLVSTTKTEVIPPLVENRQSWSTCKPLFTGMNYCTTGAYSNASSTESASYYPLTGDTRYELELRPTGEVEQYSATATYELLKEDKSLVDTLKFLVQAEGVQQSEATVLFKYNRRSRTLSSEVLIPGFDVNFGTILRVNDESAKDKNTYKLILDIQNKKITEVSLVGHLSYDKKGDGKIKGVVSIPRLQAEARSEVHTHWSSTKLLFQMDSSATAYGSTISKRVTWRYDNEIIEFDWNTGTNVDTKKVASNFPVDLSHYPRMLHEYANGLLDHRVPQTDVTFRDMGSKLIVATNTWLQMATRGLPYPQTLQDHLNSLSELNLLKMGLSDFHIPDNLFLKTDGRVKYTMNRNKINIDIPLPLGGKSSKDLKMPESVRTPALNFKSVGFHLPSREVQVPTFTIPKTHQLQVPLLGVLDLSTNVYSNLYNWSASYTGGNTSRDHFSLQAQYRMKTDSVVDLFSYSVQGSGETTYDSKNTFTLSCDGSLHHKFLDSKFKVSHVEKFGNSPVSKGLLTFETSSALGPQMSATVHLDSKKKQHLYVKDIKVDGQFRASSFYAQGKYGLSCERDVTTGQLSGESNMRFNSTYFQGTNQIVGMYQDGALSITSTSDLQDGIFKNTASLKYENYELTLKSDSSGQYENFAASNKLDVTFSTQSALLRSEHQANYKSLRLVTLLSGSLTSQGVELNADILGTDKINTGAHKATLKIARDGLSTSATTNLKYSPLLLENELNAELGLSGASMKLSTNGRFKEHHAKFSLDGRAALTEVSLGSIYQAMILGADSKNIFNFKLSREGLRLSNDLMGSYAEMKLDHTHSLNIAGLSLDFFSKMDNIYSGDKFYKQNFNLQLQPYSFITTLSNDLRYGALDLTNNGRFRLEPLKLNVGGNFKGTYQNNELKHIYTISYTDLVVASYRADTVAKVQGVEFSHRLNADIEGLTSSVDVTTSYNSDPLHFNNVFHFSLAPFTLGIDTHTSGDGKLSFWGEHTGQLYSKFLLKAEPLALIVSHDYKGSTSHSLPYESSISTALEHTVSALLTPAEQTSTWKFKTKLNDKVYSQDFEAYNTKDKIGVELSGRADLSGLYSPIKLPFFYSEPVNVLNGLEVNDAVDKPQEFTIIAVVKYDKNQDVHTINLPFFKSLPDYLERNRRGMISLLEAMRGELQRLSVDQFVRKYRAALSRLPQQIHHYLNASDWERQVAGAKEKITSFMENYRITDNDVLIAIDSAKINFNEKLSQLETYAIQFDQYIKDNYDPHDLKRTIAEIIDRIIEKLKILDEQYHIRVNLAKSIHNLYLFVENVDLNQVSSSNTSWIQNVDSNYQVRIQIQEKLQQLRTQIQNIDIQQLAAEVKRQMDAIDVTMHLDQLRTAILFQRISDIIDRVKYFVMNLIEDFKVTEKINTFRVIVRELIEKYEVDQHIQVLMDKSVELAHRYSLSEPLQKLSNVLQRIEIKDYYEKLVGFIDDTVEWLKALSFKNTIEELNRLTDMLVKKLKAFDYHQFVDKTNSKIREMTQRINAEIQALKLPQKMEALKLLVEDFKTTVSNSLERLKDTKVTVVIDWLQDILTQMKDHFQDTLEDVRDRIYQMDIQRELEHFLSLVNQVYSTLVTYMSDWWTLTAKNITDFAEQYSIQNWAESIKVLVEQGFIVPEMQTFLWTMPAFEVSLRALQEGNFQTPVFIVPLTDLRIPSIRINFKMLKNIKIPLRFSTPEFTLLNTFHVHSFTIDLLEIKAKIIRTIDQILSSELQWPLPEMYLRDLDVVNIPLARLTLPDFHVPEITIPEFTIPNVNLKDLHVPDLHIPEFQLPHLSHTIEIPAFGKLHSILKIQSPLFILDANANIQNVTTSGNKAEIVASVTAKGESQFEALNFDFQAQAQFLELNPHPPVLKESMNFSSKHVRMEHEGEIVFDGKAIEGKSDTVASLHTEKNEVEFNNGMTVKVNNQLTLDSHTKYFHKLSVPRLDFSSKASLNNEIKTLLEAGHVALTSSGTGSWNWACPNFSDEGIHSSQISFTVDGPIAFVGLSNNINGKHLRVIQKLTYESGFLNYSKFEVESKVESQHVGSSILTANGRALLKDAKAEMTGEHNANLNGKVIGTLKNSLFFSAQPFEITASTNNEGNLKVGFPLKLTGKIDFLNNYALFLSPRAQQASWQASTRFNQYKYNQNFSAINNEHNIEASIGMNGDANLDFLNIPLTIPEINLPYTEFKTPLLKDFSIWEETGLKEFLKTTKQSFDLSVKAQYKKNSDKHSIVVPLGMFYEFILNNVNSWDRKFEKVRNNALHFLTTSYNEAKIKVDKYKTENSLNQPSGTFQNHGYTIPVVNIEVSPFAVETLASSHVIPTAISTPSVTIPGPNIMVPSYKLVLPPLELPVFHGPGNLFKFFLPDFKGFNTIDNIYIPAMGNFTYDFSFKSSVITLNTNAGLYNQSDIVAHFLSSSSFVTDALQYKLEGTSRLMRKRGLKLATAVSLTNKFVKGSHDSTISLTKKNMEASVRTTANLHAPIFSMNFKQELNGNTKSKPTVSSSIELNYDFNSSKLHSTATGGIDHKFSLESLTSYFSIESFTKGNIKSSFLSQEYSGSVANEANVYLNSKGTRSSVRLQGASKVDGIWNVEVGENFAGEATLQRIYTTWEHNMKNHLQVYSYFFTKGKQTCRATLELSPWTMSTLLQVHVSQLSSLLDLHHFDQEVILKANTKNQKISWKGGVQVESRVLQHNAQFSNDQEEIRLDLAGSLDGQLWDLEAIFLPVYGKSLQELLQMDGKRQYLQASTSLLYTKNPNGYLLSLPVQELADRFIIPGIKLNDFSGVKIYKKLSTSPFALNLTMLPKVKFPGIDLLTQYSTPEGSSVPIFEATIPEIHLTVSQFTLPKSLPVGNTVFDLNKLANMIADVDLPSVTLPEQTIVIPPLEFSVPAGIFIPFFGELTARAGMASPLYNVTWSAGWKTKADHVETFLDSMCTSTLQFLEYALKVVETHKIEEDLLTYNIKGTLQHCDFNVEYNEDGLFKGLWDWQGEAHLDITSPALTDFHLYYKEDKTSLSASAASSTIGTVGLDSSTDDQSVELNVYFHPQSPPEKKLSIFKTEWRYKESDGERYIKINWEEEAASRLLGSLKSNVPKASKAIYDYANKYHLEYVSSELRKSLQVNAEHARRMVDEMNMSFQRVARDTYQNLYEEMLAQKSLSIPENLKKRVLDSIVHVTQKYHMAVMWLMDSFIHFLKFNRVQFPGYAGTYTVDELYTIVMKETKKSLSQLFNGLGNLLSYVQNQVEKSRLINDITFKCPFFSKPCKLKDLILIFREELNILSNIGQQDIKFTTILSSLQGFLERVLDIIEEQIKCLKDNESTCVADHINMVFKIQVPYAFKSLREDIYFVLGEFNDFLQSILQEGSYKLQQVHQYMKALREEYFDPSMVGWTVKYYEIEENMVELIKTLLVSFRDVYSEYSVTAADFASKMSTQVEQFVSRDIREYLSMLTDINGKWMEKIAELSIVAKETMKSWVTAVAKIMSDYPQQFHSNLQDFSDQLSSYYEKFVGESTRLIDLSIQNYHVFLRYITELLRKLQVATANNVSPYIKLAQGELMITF

T1: TurboID-FGF13-S (human) (UniProt Q92913)
T1 sequence: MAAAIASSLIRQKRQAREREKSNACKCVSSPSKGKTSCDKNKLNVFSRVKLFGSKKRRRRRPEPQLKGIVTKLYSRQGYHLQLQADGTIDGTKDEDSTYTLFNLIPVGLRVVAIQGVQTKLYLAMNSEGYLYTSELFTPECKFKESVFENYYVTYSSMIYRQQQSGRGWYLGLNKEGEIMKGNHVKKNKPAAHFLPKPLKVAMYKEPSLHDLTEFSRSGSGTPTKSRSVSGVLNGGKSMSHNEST


How the values were obtained:
TurboID-FGF13-S (human) [1] = molecular target: T1, TurboID-FGF13-S (human); assay: proximity labelling
TurboID-FGF13-S (human) [2] = molecular target: T1, TurboID-FGF13-S (human); assay: proximity labelling; remark: listed apart in the source

Row | Molecule | binding (TurboID-FGF13-S (human) [1]) | binding (TurboID-FGF13-S (human) [2])
1 | APOB (from UniProt E9Q414 28-4505) | no binding | –
2 | TEC kinase (protein, UniProt P24604 1-630) MNFNTILEEILIKRSQQKKKTSLLNYKERLCVLPKSVLSYYEGRAEKKYRKGVIDISKIKCVEIVKNDDGVIPCQNKFPFQVVHDANTLYIFAPSPQSRDRWVKKLKEEIKNNNNIMIKYHPKFWADGSYQCCRQTEKLAPGCEKYNLFESSIRKTLPPAPEIKKRRPPPPIPPEEENTEEIVVAMYDFQATEAHDLRLERGQEYIILEKNDLHWWRARDKYGSEGYIPSNYVTGKKSNNLDQYEWYCRNTNRSKAEQLLRTEDKEGGFMVRDSSQPGLYTVSLYTKFGGEGSSGFRHYHIKETATSPKKYYLAEKHAFGSIPEIIEYHKHNAAGLVTRLRYPVSTKGKNAPTTAGFSYDKWEINPSELTFMRELGSGLFGVVRLGKWRAQYKVAIKAIREGAMCEEDFIEEAKVMMKLTHPKLVQLYGVCTQQKPIYIVTEFMERGCLLNFLRQRQGHFSRDMLLSMCQDVCEGMEYLERNSFIHRDLAARNCLVNEAGVVKVSDFGMARYVLDDQYTSSSGAKFPVKWCPPEVFNYSRFSSKSDVWSFGVLMWEIFTEGRMPFEKNTNYEVVTMVTRGHRLHRPKLATKYLYEVMLRCWQERPEGRPSLEDLLRTIDELVECEETFGR | – | no binding
3 | BTBD17 (protein, UniProt Q9DB72 29-478) AQRADVGGEAAGTAINHSHMLLQRLQDLLRQGNASDVILRVQAVGTDEVRAFHTHRLLLGLHSELFRELLSNQSEVMLRESRDCAAVFDKFIRYLYCGELTVLLAQAIPLHRLATKYRVASLQRGVADYMRAHLAGGVGPAVGWYHYAVSTGDEALRESCLQFLAWNLSAVAGSAEWGAVSPELLAQLLQRSDLVLQDELELFHALEAWLGRARPPPTVAERALRAIRYPMIPPAQLFQLQARSAALARHGPAVADLLLQAYQFHAASPLHYAKFFHVNGSAFLPRNYLAPAWGAPWVINNPARDDRSTSFQTQLGPSGHDAGRRITWNVLFSPRWLPVSLRPVYADAAGTALPAARPEDGRPRLVVTPASSGGDAAGVSFQKTVLVGARHQGRLLVRHAYSFHQSSEEAGDFLAHADLQRRNSEYLVENALHLHLIVKPVYHTLIRTPS | – | no binding
